Publication PMC12752627, “Discovery of a Potent and Selective TEAD Degrader with Durable Degradation Activity” (Advanced Science, 2025)
Further values from the same series stand in other lists.

Tested on: 867 cancer cell lines
Assay: PRISM assay (barcoded cell line screening, 5 days);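 note: top test concentration 10 mM in eight-point dilution series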
Type: cell-based
Parameters: scale not given here
Description: The principle of the PRISM assay has been described elsewhere and was conducted as previously outlined by the PRISM team at the Broad Institute.^[ [14], [31] ^] In PRISM (MTS027) experiments, KG‐FP‐003 was tested across 867 different cancer cell lines. Cells were treated with eight concentration gradients, ranging from 4.6 nM to […], in triplicate dilutions over a period of five days. Each plate was treated with 20 µM bortezomib as a positive control and DMSO as a negative control. Three replicate experiments were performed for each compound. The resulting data were analyzed using GraphPad PRISM 9.5.

Structure (SMILES): CNC(=O)c1cc2c(c(F)c1-c1c(Cl)c(F)cc3c1C[C@@](CN[C@H]1CC[C@H](C(=O)N4CCC(CC5CCN(C(=O)COc6ccc(N7CCC(=O)NC7=O)c(C)c6)CC5)CC4)CC1)(c1ccccc1)O3)[C@@H](O)[C@@H](C)C2 [KG-FP-003]
- KG-FP-003-AUC (ICC8_BILIARY_TRACT ACH-001848 PR300): 0.79
- KG-FP-003-AUC (ICC9_BILIARY_TRACT ACH-001849 PR300): 0.87
- KG-FP-003-AUC (ICC10_BILIARY_TRACT ACH-001834 PR300): 0.43
- KG-FP-003-AUC (ICC12_BILIARY_TRACT ACH-001838 PR300): 0.67
- KG-FP-003-AUC (ICC137_BILIARY_TRACT ACH-001839 PR300): 0.99
- KG-FP-003-AUC (IGR1_SKIN ACH-000882 PR500): 0.93
- KG-FP-003-AUC (IGR37_SKIN ACH-000650 PR500): 0.95
- KG-FP-003-AUC (IGR39_SKIN ACH-000550 PR300): 0.57
- KG-FP-003-AUC (IGROV1_OVARY ACH-000966 PR500): 0.64
- KG-FP-003-AUC (IHH4_THYROID ACH-001528 PR300): 0.98
- KG-FP-003-AUC (IM95_STOMACH ACH-000919 PR500): 0.61
- KG-FP-003-AUC (IPC298_SKIN ACH-000915 PR500): 0.93
- KG-FP-003-AUC (ISHIKAWAHERAKLIO02ER_ENDOMETRIUM ACH-000961 PR500): 0.88
- KG-FP-003-AUC (ISTMES2_PLEURA ACH-000331 PR500): 0.80
- KG-FP-003-AUC (J82_URINARY_TRACT ACH-000396 PR500): 0.72
- KG-FP-003-AUC (JAR_PLACENTA ACH-001529 PR300): 0.40
- KG-FP-003-AUC (JEG3_PLACENTA ACH-001530 PR300): 0.54
- KG-FP-003-AUC (JHH1_LIVER ACH-000620 PR500): 0.64
- KG-FP-003-AUC (JHH4_LIVER ACH-000476 PR500): 0.61
- KG-FP-003-AUC (JHH5_LIVER ACH-000734 PR500): 0.91
- KG-FP-003-AUC (JHH6_LIVER ACH-000217 PR500): 0.69
- KG-FP-003-AUC (JHH7_LIVER ACH-000848 PR500): 0.96
- KG-FP-003-AUC (JHOC5_OVARY ACH-000324 PR500): 0.72
- KG-FP-003-AUC (JHOM1_OVARY ACH-000237 PR500): 0.88
- KG-FP-003-AUC (JHOS2_OVARY ACH-000132 PR500): 0.79
- KG-FP-003-AUC (JHUEM2_ENDOMETRIUM ACH-000909 PR500): 0.98
- KG-FP-003-AUC (JHUEM7_ENDOMETRIUM ACH-000993 PR300): 0.74
- KG-FP-003-AUC (JIMT1_BREAST ACH-000711 PR500): 0.85
- KG-FP-003-AUC (JJN3_HAEMATOPOIETIC_AND_LYMPHOID_TISSUE ACH-000653 PR300): 0.82
- KG-FP-003-AUC (JL1_PLEURA ACH-000645 PR300): 0.79
- KG-FP-003-AUC (JM1_HAEMATOPOIETIC_AND_LYMPHOID_TISSUE ACH-000151 PR300): 0.71
- KG-FP-003-AUC (JMSU1_URINARY_TRACT ACH-000753 PR500): 0.69
- KG-FP-003-AUC (JMURTK2_SOFT_TISSUE ACH-001532 PR300): 0.85
- KG-FP-003-AUC (JOPACA1_PANCREAS ACH-001353 PR300): 0.84
- KG-FP-003-AUC (JR_SOFT_TISSUE ACH-001096 PR300): 0.90
- KG-FP-003-AUC (JURKAT_HAEMATOPOIETIC_AND_LYMPHOID_TISSUE ACH-000995 PR300): 0.89
- KG-FP-003-AUC (JURLMK1_HAEMATOPOIETIC_AND_LYMPHOID_TISSUE ACH-000326 PR300): 0.78
- KG-FP-003-AUC (JVM3_HAEMATOPOIETIC_AND_LYMPHOID_TISSUE ACH-000346 PR300): 0.96
- KG-FP-003-AUC (K029AX_SKIN ACH-000404 PR500): 1.00
- KG-FP-003-AUC (K562_HAEMATOPOIETIC_AND_LYMPHOID_TISSUE ACH-000551 PR300): 0.81
- KG-FP-003-AUC (KALS1_CENTRAL_NERVOUS_SYSTEM ACH-000231 PR500): 0.57
- KG-FP-003-AUC (KARPAS299_HAEMATOPOIETIC_AND_LYMPHOID_TISSUE ACH-000053 PR300): 0.85
- KG-FP-003-AUC (KARPAS620_HAEMATOPOIETIC_AND_LYMPHOID_TISSUE ACH-000193 PR300): 0.91
- KG-FP-003-AUC (KARPAS1718_HAEMATOPOIETIC_AND_LYMPHOID_TISSUE ACH-001533 PR300): 0.91
- KG-FP-003-AUC (KATOIII_STOMACH ACH-000793 PR300): 0.71
- KG-FP-003-AUC (KCL22_HAEMATOPOIETIC_AND_LYMPHOID_TISSUE ACH-000983 PR300): 0.85
- KG-FP-003-AUC (KD_SOFT_TISSUE ACH-001099 PR300): 0.42
- KG-FP-003-AUC (KE37_HAEMATOPOIETIC_AND_LYMPHOID_TISSUE ACH-000101 PR300): 0.73
- KG-FP-003-AUC (KE39_STOMACH ACH-000507 PR300): 0.91
- KG-FP-003-AUC (KE97_STOMACH ACH-000167 PR300): 0.80
- KG-FP-003-AUC (KELLY_AUTONOMIC_GANGLIA ACH-000259 PR300): 1.00
- KG-FP-003-AUC (KHM1B_HAEMATOPOIETIC_AND_LYMPHOID_TISSUE ACH-000564 PR300): 0.96
- KG-FP-003-AUC (KKU055_BILIARY_TRACT ACH-001537 PR300): 0.93
- KG-FP-003-AUC (KKU100_BILIARY_TRACT ACH-001536 PR300): 0.60
- KG-FP-003-AUC (KKU213_BILIARY_TRACT ACH-001538 PR300): 0.76
- KG-FP-003-AUC (KLE_ENDOMETRIUM ACH-000293 PR300): 0.53
- KG-FP-003-AUC (KMBC2_URINARY_TRACT ACH-000862 PR500): 0.66
- KG-FP-003-AUC (KMCH1_BILIARY_TRACT ACH-001853 PR300): 0.99
- KG-FP-003-AUC (KMH2_HAEMATOPOIETIC_AND_LYMPHOID_TISSUE ACH-000815 PR300): 0.91
- KG-FP-003-AUC (KMRC1_KIDNEY ACH-000684 PR500): 0.86
- KG-FP-003-AUC (KMRC3_KIDNEY ACH-000313 PR500): 0.87
- KG-FP-003-AUC (KMRC20_KIDNEY ACH-000250 PR500): 0.94
- KG-FP-003-AUC (KMS11_HAEMATOPOIETIC_AND_LYMPHOID_TISSUE ACH-000714 PR300): 0.90
- KG-FP-003-AUC (KMS12BM_HAEMATOPOIETIC_AND_LYMPHOID_TISSUE ACH-000380 PR300): 0.86
- KG-FP-003-AUC (KMS18_HAEMATOPOIETIC_AND_LYMPHOID_TISSUE ACH-000658 PR300): 0.91
- KG-FP-003-AUC (KMS27_HAEMATOPOIETIC_AND_LYMPHOID_TISSUE ACH-000576 PR300): 0.82
- KG-FP-003-AUC (KMS28BM_HAEMATOPOIETIC_AND_LYMPHOID_TISSUE ACH-000419 PR300): 0.87
- KG-FP-003-AUC (KNS42_CENTRAL_NERVOUS_SYSTEM ACH-000622 PR500): 0.77
- KG-FP-003-AUC (KNS60_CENTRAL_NERVOUS_SYSTEM ACH-000445 PR500): 0.84
- KG-FP-003-AUC (KNS62_LUNG ACH-000858 PR500): 0.93
- KG-FP-003-AUC (KNS81_CENTRAL_NERVOUS_SYSTEM ACH-000479 PR500): 0.66
- KG-FP-003-AUC (KON_UPPER_AERODIGESTIVE_TRACT ACH-001542 PR300): 0.90
- KG-FP-003-AUC (KOPN8_HAEMATOPOIETIC_AND_LYMPHOID_TISSUE ACH-001106 PR300): 0.98
- KG-FP-003-AUC (KOSC2CL343_UPPER_AERODIGESTIVE_TRACT ACH-001543 PR300): 0.92
- KG-FP-003-AUC (KP2_PANCREAS ACH-000281 PR500): 0.77
- KG-FP-003-AUC (KP3_PANCREAS ACH-000108 PR500): 0.83
- KG-FP-003-AUC (KP4_PANCREAS ACH-000265 PR500): 0.73
- KG-FP-003-AUC (KS1_CENTRAL_NERVOUS_SYSTEM ACH-000631 PR300): 0.62
- KG-FP-003-AUC (KU1919_URINARY_TRACT ACH-000486 PR500): 0.59
- KG-FP-003-AUC (KURAMOCHI_OVARY, PR500): 0.79
- KG-FP-003-AUC (KYM1_SOFT_TISSUE, PR300): 0.49
- KG-FP-003-AUC (KYO1_HAEMATOPOIETIC_AND_LYMPHOID_TISSUE, PR300): 0.83
- KG-FP-003-AUC (KYSE30_OESOPHAGUS, PR500): 0.64
- KG-FP-003-AUC (KYSE70_OESOPHAGUS, PR500): 1.00
- KG-FP-003-AUC (KYSE140_OESOPHAGUS, PR500): 0.95
- KG-FP-003-AUC (KYSE150_OESOPHAGUS, PR500): 0.90
- KG-FP-003-AUC (KYSE180_OESOPHAGUS, PR500): 0.88
- KG-FP-003-AUC (KYSE270_OESOPHAGUS, PR500): 0.87
- KG-FP-003-AUC (KYSE410_OESOPHAGUS, PR500): 0.71
- KG-FP-003-AUC (KYSE450_OESOPHAGUS, PR300): 0.95
- KG-FP-003-AUC (KYSE510_OESOPHAGUS, PR500): 0.86
- KG-FP-003-AUC (KYSE520_OESOPHAGUS, PR500): 0.66
- KG-FP-003-AUC (L33_PANCREAS, PR500): 0.83
- KG-FP-003-AUC (L82_HAEMATOPOIETIC_AND_LYMPHOID_TISSUE, PR300): 0.79
- KG-FP-003-AUC (LAMA84_HAEMATOPOIETIC_AND_LYMPHOID_TISSUE, PR300): 0.89
